{"sequences": {"note": "Protein sequences, listed by entry. Tags and fused reporters are not part of them. Lines headed by an entry give the natural chain unless they say otherwise; changes in a name come on top.", "UniProt P29401": "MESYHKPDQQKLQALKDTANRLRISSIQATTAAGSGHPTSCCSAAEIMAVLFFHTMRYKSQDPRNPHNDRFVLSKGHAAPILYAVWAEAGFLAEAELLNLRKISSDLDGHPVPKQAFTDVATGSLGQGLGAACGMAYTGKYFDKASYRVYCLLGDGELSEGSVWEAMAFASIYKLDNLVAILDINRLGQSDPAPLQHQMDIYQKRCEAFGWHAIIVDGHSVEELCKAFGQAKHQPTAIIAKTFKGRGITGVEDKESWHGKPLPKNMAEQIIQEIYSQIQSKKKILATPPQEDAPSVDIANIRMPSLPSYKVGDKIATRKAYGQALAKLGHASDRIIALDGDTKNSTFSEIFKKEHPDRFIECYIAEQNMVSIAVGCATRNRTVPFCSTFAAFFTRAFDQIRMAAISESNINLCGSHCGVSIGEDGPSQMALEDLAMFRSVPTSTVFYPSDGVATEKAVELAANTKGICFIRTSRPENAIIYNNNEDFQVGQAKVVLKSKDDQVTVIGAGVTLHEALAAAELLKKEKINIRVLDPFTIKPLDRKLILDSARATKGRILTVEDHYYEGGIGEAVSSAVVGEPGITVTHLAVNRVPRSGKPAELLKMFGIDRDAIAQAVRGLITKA", "UniProt P31321, whole entry": "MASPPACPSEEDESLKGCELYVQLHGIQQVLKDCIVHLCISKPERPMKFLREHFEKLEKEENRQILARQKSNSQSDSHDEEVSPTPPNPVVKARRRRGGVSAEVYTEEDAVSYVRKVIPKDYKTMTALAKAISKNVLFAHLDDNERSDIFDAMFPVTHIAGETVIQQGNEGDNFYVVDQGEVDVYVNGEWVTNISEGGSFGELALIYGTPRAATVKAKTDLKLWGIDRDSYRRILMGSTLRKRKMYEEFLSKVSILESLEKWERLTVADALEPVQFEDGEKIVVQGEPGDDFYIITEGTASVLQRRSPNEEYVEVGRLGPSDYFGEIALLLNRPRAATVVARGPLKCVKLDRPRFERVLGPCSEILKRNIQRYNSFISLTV", "UniProt P23526": "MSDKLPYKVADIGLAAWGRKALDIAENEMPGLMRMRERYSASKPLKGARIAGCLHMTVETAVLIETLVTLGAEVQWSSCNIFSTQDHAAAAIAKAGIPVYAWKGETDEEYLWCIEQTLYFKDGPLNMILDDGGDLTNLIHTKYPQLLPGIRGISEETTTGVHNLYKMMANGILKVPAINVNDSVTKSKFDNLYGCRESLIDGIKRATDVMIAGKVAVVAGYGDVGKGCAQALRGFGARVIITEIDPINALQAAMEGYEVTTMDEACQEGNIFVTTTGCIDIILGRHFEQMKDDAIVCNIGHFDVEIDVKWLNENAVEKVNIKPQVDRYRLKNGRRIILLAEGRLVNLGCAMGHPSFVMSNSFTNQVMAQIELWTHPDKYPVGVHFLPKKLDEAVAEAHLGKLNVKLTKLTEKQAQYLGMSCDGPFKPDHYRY", "UniProt P25788": "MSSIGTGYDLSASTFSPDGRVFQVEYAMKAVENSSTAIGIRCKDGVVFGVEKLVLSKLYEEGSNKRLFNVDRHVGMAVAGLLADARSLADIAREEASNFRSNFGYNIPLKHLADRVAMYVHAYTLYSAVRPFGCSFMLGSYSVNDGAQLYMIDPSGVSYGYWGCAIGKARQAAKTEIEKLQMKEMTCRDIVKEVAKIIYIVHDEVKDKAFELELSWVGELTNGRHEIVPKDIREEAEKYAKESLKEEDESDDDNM", "UniProt P0DPI2": "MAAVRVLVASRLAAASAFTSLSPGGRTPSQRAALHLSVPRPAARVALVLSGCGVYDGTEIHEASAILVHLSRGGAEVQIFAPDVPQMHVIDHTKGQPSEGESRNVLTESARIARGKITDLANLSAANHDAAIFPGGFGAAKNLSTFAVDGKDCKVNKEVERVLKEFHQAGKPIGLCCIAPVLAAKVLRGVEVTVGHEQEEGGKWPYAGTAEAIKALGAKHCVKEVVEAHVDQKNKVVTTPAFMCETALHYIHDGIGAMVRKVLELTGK", "UniProt P18669": "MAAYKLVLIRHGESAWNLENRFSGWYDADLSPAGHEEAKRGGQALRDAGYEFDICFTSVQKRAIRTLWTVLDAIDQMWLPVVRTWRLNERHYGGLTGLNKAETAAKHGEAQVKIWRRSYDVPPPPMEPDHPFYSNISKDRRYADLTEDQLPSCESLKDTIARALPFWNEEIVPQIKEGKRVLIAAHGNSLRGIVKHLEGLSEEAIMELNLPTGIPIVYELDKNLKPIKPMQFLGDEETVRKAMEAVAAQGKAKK", "UniProt P30043": "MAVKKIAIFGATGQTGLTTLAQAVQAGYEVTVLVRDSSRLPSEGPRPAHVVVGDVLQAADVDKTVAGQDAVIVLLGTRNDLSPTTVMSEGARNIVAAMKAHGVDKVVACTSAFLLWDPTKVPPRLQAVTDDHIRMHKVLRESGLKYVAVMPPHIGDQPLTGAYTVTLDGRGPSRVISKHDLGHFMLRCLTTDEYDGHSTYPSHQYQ", "UniProt P25325": "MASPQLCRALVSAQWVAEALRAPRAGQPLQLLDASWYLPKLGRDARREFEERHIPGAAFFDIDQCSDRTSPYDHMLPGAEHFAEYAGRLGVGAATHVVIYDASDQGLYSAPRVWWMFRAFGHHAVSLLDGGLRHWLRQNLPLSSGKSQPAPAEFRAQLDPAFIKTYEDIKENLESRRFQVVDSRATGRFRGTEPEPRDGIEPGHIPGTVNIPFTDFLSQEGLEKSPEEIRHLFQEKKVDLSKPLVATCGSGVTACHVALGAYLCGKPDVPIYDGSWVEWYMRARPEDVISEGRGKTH", "UniProt P30793": "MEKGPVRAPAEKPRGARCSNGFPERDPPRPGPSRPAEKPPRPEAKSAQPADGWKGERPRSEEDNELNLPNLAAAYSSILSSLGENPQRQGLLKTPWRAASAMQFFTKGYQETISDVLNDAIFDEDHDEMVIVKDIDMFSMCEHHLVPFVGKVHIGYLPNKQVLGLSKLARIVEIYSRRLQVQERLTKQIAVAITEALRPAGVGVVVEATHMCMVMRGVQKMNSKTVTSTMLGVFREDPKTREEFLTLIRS", "UniProt P33316": "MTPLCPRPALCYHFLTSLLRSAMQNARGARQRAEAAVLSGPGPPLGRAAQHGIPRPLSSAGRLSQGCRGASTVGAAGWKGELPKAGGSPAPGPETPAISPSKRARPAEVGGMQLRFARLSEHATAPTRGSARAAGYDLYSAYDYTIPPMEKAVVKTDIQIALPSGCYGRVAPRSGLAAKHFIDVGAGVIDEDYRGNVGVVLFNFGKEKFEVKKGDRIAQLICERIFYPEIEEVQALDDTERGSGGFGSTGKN", "UniProt P23469": "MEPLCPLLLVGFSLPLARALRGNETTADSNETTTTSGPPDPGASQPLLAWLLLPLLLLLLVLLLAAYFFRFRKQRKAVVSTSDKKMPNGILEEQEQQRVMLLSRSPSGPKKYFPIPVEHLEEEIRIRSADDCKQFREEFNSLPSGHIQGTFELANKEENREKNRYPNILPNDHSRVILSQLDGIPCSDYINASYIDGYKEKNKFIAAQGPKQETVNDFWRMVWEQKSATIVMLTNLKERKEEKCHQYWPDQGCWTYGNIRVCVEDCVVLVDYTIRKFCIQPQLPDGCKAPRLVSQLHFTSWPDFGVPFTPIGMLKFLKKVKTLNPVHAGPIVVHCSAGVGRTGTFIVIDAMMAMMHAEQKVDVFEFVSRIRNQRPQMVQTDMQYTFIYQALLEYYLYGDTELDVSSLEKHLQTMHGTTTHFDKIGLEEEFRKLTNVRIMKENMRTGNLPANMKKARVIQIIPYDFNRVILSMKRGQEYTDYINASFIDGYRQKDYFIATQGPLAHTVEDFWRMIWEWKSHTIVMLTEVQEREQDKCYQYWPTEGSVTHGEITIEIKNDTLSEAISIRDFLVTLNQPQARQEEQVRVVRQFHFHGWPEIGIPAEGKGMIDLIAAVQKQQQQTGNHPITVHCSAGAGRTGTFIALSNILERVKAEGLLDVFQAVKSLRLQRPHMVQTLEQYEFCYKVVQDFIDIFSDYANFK", "UniProt P31937": "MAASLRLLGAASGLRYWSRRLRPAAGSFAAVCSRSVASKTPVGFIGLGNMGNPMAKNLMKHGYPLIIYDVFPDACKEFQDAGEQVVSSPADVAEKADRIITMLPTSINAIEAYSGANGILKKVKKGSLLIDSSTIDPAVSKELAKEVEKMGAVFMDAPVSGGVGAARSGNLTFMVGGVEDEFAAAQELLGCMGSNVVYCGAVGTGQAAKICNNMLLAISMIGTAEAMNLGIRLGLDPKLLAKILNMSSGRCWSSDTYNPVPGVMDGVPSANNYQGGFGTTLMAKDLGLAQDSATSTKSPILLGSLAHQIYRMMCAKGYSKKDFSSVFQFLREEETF", "UniProt P27701": "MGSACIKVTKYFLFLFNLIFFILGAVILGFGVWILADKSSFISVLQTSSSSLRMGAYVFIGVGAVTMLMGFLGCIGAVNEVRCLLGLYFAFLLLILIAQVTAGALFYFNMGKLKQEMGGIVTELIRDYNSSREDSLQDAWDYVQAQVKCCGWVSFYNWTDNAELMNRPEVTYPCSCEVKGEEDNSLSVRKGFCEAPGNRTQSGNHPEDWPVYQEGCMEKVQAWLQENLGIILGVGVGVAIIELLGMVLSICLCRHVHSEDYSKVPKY", "UniProt P32780": "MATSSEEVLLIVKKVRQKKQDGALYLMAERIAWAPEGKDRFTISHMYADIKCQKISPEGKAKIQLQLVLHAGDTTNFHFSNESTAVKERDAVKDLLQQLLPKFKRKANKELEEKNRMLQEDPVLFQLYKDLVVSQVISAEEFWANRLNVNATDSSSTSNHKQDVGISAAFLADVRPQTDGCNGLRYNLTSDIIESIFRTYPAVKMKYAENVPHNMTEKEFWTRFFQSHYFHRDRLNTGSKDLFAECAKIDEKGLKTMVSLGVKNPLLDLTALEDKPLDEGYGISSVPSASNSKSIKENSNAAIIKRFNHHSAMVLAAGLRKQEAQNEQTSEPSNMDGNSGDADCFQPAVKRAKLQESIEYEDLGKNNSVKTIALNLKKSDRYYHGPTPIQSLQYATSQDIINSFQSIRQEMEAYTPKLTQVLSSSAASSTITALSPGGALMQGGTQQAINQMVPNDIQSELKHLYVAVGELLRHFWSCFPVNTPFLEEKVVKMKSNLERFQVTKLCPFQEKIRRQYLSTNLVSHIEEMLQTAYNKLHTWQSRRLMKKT"}, "source": "the supplement of paper PMC6411743", "compound": "Nc1ncnc2c1ncn2[C@@H]1O[C@H](COP(=O)(O)OP(=O)(O)OP(=O)(O)O)[C@@H](O)[C@H]1O [adenosine triphosphate]", "assay": "NP40-soluble protein abundance relative to vehicle (solubility fold change) (ratio); higher = more soluble protein in presence of ATP", "procedure,_shortened": "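Eight concentrations, 0.1 to 10 mM, were tested on Jurkat crude lysate for 10 min at room temperature and then 3 min at 37 °C, in three independent experiments. The lysate was solubilised with 0.8% NP40 and benzonase, ultracentrifuged, and the supernatant TMT-labelled for LC-MS/MS. Each value is the fold change against the detergent-processed vehicle in its own replicate, from vsn-normalised intensities.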", "note": "± gives the standard deviation of the averaged measurements. Only a part is listed here, and it is no random draw."}
{"target": "UniProt P29401 and related entries", "values": [{"measurement": "NP40-soluble protein abundance", "setting": "concentration: 1mM", "result": "1.02 ± 0.053"}, {"measurement": "NP40-soluble protein abundance", "setting": "concentration: 2mM", "result": "0.951 ± 0.034"}, {"measurement": "NP40-soluble protein abundance", "setting": "concentration: 4mM", "result": "0.931 ± 0.028"}, {"measurement": "NP40-soluble protein abundance", "setting": "concentration: 6mM", "result": "0.956 ± 0.057"}, {"measurement": "NP40-soluble protein abundance", "setting": "concentration: 8mM", "result": "0.95 ± 0.035"}, {"measurement": "NP40-soluble protein abundance", "setting": "concentration: 10mM", "result": "0.928 ± 0.046"}]}
{"target": "PRKAR1B (UniProt P31321)", "values": [{"measurement": "NP40-soluble protein abundance", "setting": "concentration: 1mM", "result": "1.04 ± 0.083"}, {"measurement": "NP40-soluble protein abundance", "setting": "concentration: 2mM", "result": "1.01 ± 0.048"}, {"measurement": "NP40-soluble protein abundance", "setting": "concentration: 4mM", "result": "1.03 ± 0.014"}, {"measurement": "NP40-soluble protein abundance", "setting": "concentration: 6mM", "result": "1.06 ± 0.066"}, {"measurement": "NP40-soluble protein abundance", "setting": "concentration: 8mM", "result": "1.11 ± 0.026"}, {"measurement": "NP40-soluble protein abundance", "setting": "concentration: 10mM", "result": "1.03 ± 0.025"}]}
{"target": "ERP29 (UniProt P30040)", "values": [{"measurement": "NP40-soluble protein abundance", "setting": "concentration: 1mM", "result": "0.947 ± 0.035"}, {"measurement": "NP40-soluble protein abundance", "setting": "concentration: 2mM", "result": "0.945 ± 0.011"}, {"measurement": "NP40-soluble protein abundance", "setting": "concentration: 4mM", "result": "0.914 ± 0.016"}, {"measurement": "NP40-soluble protein abundance", "setting": "concentration: 6mM", "result": "0.9321 ± 0.0062"}, {"measurement": "NP40-soluble protein abundance", "setting": "concentration: 8mM", "result": "0.906 ± 0.011"}, {"measurement": "NP40-soluble protein abundance", "setting": "concentration: 10mM", "result": "0.893 ± 0.024"}]}
{"target": "AHCY (UniProt P23526)", "values": [{"measurement": "NP40-soluble protein abundance", "setting": "concentration: 1mM", "result": "0.984 ± 0.074"}, {"measurement": "NP40-soluble protein abundance", "setting": "concentration: 2mM", "result": "0.962 ± 0.07"}, {"measurement": "NP40-soluble protein abundance", "setting": "concentration: 4mM", "result": "0.949 ± 0.051"}, {"measurement": "NP40-soluble protein abundance", "setting": "concentration: 6mM", "result": "0.929 ± 0.095"}, {"measurement": "NP40-soluble protein abundance", "setting": "concentration: 8mM", "result": "0.976 ± 0.051"}, {"measurement": "NP40-soluble protein abundance", "setting": "concentration: 10mM", "result": "0.954 ± 0.063"}]}
{"target": "UniProt P25788 and related entries", "values": [{"measurement": "NP40-soluble protein abundance", "setting": "concentration: 1mM", "result": "0.92 ± 0.044"}, {"measurement": "NP40-soluble protein abundance", "setting": "concentration: 2mM", "result": "0.883 ± 0.021"}, {"measurement": "NP40-soluble protein abundance", "setting": "concentration: 4mM", "result": "0.833 ± 0.033"}, {"measurement": "NP40-soluble protein abundance", "setting": "concentration: 6mM", "result": "0.862 ± 0.056"}, {"measurement": "NP40-soluble protein abundance", "setting": "concentration: 8mM", "result": "0.876 ± 0.072"}, {"measurement": "NP40-soluble protein abundance", "setting": "concentration: 10mM", "result": "0.856 ± 0.042"}]}
{"target": "P30042 (UniProt P0DPI2)", "values": [{"measurement": "NP40-soluble protein abundance", "setting": "concentration: 1mM", "result": "0.9847 ± 0.0097"}, {"measurement": "NP40-soluble protein abundance", "setting": "concentration: 2mM", "result": "0.948 ± 0.041"}, {"measurement": "NP40-soluble protein abundance", "setting": "concentration: 4mM", "result": "0.936 ± 0.007"}, {"measurement": "NP40-soluble protein abundance", "setting": "concentration: 6mM", "result": "0.982 ± 0.053"}, {"measurement": "NP40-soluble protein abundance", "setting": "concentration: 8mM", "result": "0.942 ± 0.061"}, {"measurement": "NP40-soluble protein abundance", "setting": "concentration: 10mM", "result": "0.938 ± 0.016"}]}
{"target": "PGAM1 (UniProt P18669)", "values": [{"measurement": "NP40-soluble protein abundance", "setting": "concentration: 1mM", "result": "0.964 ± 0.21"}, {"measurement": "NP40-soluble protein abundance", "setting": "concentration: 2mM", "result": "1.02 ± 0.1"}, {"measurement": "NP40-soluble protein abundance", "setting": "concentration: 4mM", "result": "0.859 ± 0.12"}, {"measurement": "NP40-soluble protein abundance", "setting": "concentration: 6mM", "result": "1.04 ± 0.14"}, {"measurement": "NP40-soluble protein abundance", "setting": "concentration: 8mM", "result": "0.922 ± 0.021"}, {"measurement": "NP40-soluble protein abundance", "setting": "concentration: 10mM", "result": "0.852 ± 0.1"}]}
{"target": "BLVRB (UniProt P30043)", "values": [{"measurement": "NP40-soluble protein abundance", "setting": "concentration: 1mM", "result": "0.952 ± 0.042"}, {"measurement": "NP40-soluble protein abundance", "setting": "concentration: 2mM", "result": "0.984 ± 0.043"}, {"measurement": "NP40-soluble protein abundance", "setting": "concentration: 4mM", "result": "0.962 ± 0.034"}, {"measurement": "NP40-soluble protein abundance", "setting": "concentration: 6mM", "result": "0.913 ± 0.067"}, {"measurement": "NP40-soluble protein abundance", "setting": "concentration: 8mM", "result": "0.951 ± 0.045"}, {"measurement": "NP40-soluble protein abundance", "setting": "concentration: 10mM", "result": "0.957 ± 0.034"}]}
{"target": "UniProt P25325 and related entries", "values": [{"measurement": "NP40-soluble protein abundance", "setting": "concentration: 1mM", "result": "0.98 ± 0.034"}, {"measurement": "NP40-soluble protein abundance", "setting": "concentration: 2mM", "result": "0.974 ± 0.014"}, {"measurement": "NP40-soluble protein abundance", "setting": "concentration: 4mM", "result": "0.93 ± 0.019"}, {"measurement": "NP40-soluble protein abundance", "setting": "concentration: 6mM", "result": "1.05 ± 0.045"}, {"measurement": "NP40-soluble protein abundance", "setting": "concentration: 8mM", "result": "0.986 ± 0.073"}, {"measurement": "NP40-soluble protein abundance", "setting": "concentration: 10mM", "result": "0.974 ± 0.06"}]}
{"target": "GCH1 (UniProt P30793)", "values": [{"measurement": "NP40-soluble protein abundance", "setting": "concentration: 1mM", "result": "0.947 ± 0.019"}, {"measurement": "NP40-soluble protein abundance", "setting": "concentration: 2mM", "result": "0.98786 ± 0.00041"}, {"measurement": "NP40-soluble protein abundance", "setting": "concentration: 4mM", "result": "1.02 ± 0.027"}, {"measurement": "NP40-soluble protein abundance", "setting": "concentration: 6mM", "result": "0.879 ± 0.028"}, {"measurement": "NP40-soluble protein abundance", "setting": "concentration: 8mM", "result": "0.926 ± 0.093"}, {"measurement": "NP40-soluble protein abundance", "setting": "concentration: 10mM", "result": "0.937 ± 0.019"}]}
{"target": "UniProt P33316 and related entries", "values": [{"measurement": "NP40-soluble protein abundance", "setting": "concentration: 1mM", "result": "0.991 ± 0.044"}, {"measurement": "NP40-soluble protein abundance", "setting": "concentration: 2mM", "result": "0.9957 ± 0.0028"}, {"measurement": "NP40-soluble protein abundance", "setting": "concentration: 4mM", "result": "0.977 ± 0.026"}, {"measurement": "NP40-soluble protein abundance", "setting": "concentration: 6mM", "result": "1 ± 0.03"}, {"measurement": "NP40-soluble protein abundance", "setting": "concentration: 8mM", "result": "0.965 ± 0.031"}, {"measurement": "NP40-soluble protein abundance", "setting": "concentration: 10mM", "result": "0.944 ± 0.018"}]}
{"target": "UniProt P23469 and related entries", "values": [{"measurement": "NP40-soluble protein abundance", "setting": "concentration: 1mM", "result": "1.13 ± 0.09"}, {"measurement": "NP40-soluble protein abundance", "setting": "concentration: 2mM", "result": "1.16 ± 0.082"}, {"measurement": "NP40-soluble protein abundance", "setting": "concentration: 4mM", "result": "1.04 ± 0.062"}, {"measurement": "NP40-soluble protein abundance", "setting": "concentration: 6mM", "result": "1.02 ± 0.16"}, {"measurement": "NP40-soluble protein abundance", "setting": "concentration: 8mM", "result": "1.1 ± 0.25"}, {"measurement": "NP40-soluble protein abundance", "setting": "concentration: 10mM", "result": "1.015 ± 0.0043"}]}
{"target": "HIBADH (UniProt P31937)", "values": [{"measurement": "NP40-soluble protein abundance", "setting": "concentration: 1mM", "result": "0.952 ± 0.019"}, {"measurement": "NP40-soluble protein abundance", "setting": "concentration: 2mM", "result": "0.964 ± 0.03"}, {"measurement": "NP40-soluble protein abundance", "setting": "concentration: 4mM", "result": "0.948 ± 0.07"}, {"measurement": "NP40-soluble protein abundance", "setting": "concentration: 6mM", "result": "0.965 ± 0.033"}, {"measurement": "NP40-soluble protein abundance", "setting": "concentration: 8mM", "result": "0.936 ± 0.064"}, {"measurement": "NP40-soluble protein abundance", "setting": "concentration: 10mM", "result": "0.942 ± 0.016"}]}
{"target": "UniProt P27701 and related entries", "values": [{"measurement": "NP40-soluble protein abundance", "setting": "concentration: 1mM", "result": "0.874 ± 0.062"}, {"measurement": "NP40-soluble protein abundance", "setting": "concentration: 2mM", "result": "0.896 ± 0.0062"}, {"measurement": "NP40-soluble protein abundance", "setting": "concentration: 4mM", "result": "0.883 ± 0.039"}, {"measurement": "NP40-soluble protein abundance", "setting": "concentration: 6mM", "result": "0.852 ± 0.024"}, {"measurement": "NP40-soluble protein abundance", "setting": "concentration: 8mM", "result": "0.851 ± 0.036"}, {"measurement": "NP40-soluble protein abundance", "setting": "concentration: 10mM", "result": "0.779 ± 0.072"}]}
{"target": "UniProt P32780 and related entries", "values": [{"measurement": "NP40-soluble protein abundance", "setting": "concentration: 1mM", "result": "1.004 ± 0.0076"}, {"measurement": "NP40-soluble protein abundance", "setting": "concentration: 2mM", "result": "1.03 ± 0.049"}, {"measurement": "NP40-soluble protein abundance", "setting": "concentration: 4mM", "result": "1.04 ± 0.029"}, {"measurement": "NP40-soluble protein abundance", "setting": "concentration: 6mM", "result": "1.08 ± 0.019"}, {"measurement": "NP40-soluble protein abundance", "setting": "concentration: 8mM", "result": "1.07 ± 0.042"}, {"measurement": "NP40-soluble protein abundance", "setting": "concentration: 10mM", "result": "1.12 ± 0.035"}]}
